Results deposited as PubChem BioAssay AID1224828 (NIAID, 2016)
Shown is one part, drawn at random, of about 17,000 deposited reagents. 762 of all reagents (4.5%) count as active. 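Active calls include both raised and lowered p65 entry, mostly lowered; wells with fewer than 50 cells lack a z-score.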 Raw values are not corrected between plates. The numbers tell different reagents against one gene apart.

Test: 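Find genes required for NF-kappaB p65 moving into the nucleus after LPS in mouse macrophages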 (primary screen)
System: mouse RAW264.7 G9 macrophage reporter cells (GFP-p65, Tnf promoter-mCherry)
Knock-down reagent: siRNA pool against mouse genes, 100 nM
Timing: 2 days siRNA transfection, then 40 min LPS before fixation
Treatment: LPS (Salmonella minnesota R595) at 10 ng/ml
Measurement: 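Imaged p65 nuclear translocation ratio, normalised to the plate median, converted to robust z-scores and averaged across two replicates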
Reading the numbers: p65 translocation robust z-score: higher = more nuclear NF-kappaB p65 after LPS than the plate median; nuclear/cytoplasmic p65 ratio: higher = more nuclear NF-kappaB p65
Active means: 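Called active when z exceeds 3.3 or falls under -1.56 (median of Tlr4 controls), giving activity score of at least 50; no calls for control wells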
Meaning of the calls: active = hit (p65 shift raised or lowered); inactive = no clear change

Slc33a2
- nuclear/cytoplasmic p65 ratio, rep 1: 1.03
- nuclear/cytoplasmic p65 ratio, rep 2: 1.36
- low cell count flag: fewer than 50 cells per well; well left out of scoring
- activity call: inactive

Galnt5
- nuclear/cytoplasmic p65 ratio, rep 1: 1.21
- nuclear/cytoplasmic p65 ratio, rep 2: 1.13
- low cell count flag: fewer than 50 cells per well; well left out of scoring
- activity call: inactive

H1f7
- p65 translocation robust z-score: -0.13
- nuclear/cytoplasmic p65 ratio, rep 1: 1.3
- nuclear/cytoplasmic p65 ratio, rep 2: 1.48
- low cell count flag: enough cells to score
- activity call: inactive

Wac
- p65 translocation robust z-score: 0.77
- nuclear/cytoplasmic p65 ratio, rep 1: 1.47
- nuclear/cytoplasmic p65 ratio, rep 2: 1.33
- low cell count flag: enough cells to score
- activity call: inactive

Pin1
- p65 translocation robust z-score: -0.95
- nuclear/cytoplasmic p65 ratio, rep 1: 1.37
- nuclear/cytoplasmic p65 ratio, rep 2: 1.28
- low cell count flag: enough cells to score
- activity call: inactive

Usp22
- p65 translocation robust z-score: -0.86
- nuclear/cytoplasmic p65 ratio, rep 1: 1.47
- nuclear/cytoplasmic p65 ratio, rep 2: 1.31
- low cell count flag: enough cells to score
- activity call: inactive

Ranbp17
- p65 translocation robust z-score: 0.82
- nuclear/cytoplasmic p65 ratio, rep 1: 1.48
- nuclear/cytoplasmic p65 ratio, rep 2: 1.31
- low cell count flag: enough cells to score
- activity call: inactive

Epc1
- p65 translocation robust z-score: -0.75
- nuclear/cytoplasmic p65 ratio, rep 1: 1.39
- nuclear/cytoplasmic p65 ratio, rep 2: 1.26
- low cell count flag: enough cells to score
- activity call: inactive

Hacd3
- nuclear/cytoplasmic p65 ratio, rep 1: 1.22
- nuclear/cytoplasmic p65 ratio, rep 2: 1.5
- low cell count flag: fewer than 50 cells per well; well left out of scoring
- activity call: inactive

Lyve1
- p65 translocation robust z-score: 0.28
- nuclear/cytoplasmic p65 ratio, rep 1: 1.39
- nuclear/cytoplasmic p65 ratio, rep 2: 1.33
- low cell count flag: enough cells to score
- activity call: inactive

Vmn1r239-ps
- p65 translocation robust z-score: 0.85
- nuclear/cytoplasmic p65 ratio, rep 1: 1.52
- nuclear/cytoplasmic p65 ratio, rep 2: 1.31
- low cell count flag: enough cells to score
- activity call: inactive

Map4k1
- p65 translocation robust z-score: -1.04
- nuclear/cytoplasmic p65 ratio, rep 2: 1.25
- low cell count flag: enough cells to score
- activity call: inactive

Dph7
- nuclear/cytoplasmic p65 ratio, rep 1: 1.29
- nuclear/cytoplasmic p65 ratio, rep 2: 1.11
- low cell count flag: fewer than 50 cells per well; well left out of scoring
- activity call: inactive

Ppargc1a #1
- p65 translocation robust z-score: -0.68
- nuclear/cytoplasmic p65 ratio, rep 1: 1.42
- nuclear/cytoplasmic p65 ratio, rep 2: 1.3
- low cell count flag: enough cells to score
- activity call: inactive

Ppargc1a #2
- nuclear/cytoplasmic p65 ratio, rep 1: 1.46
- nuclear/cytoplasmic p65 ratio, rep 2: 1.52
- low cell count flag: fewer than 50 cells per well; well left out of scoring
- activity call: inactive
